Binding data for four molecules are collected here from patent publication US20190256610A1 (NATIONAL UNIVERSITY CORPORATION HOKKAIDO UNIVERSITY, published 2019).

Results are given in words; binding and its absence hold for the method and conditions named. Some binding calls cover weakened binding; strength is not graded here.

Assay [1] addresses T1, human Eva1 protein (human, UniProt O60487 27-150, limits assumed).
T1 construct: Soluble analyte in the SPR work and partner in the crystal; it calls it 'the antigen, that is, the Eva1 protein'; also called human-derived Eva1 protein; hEva1
T1 sequence: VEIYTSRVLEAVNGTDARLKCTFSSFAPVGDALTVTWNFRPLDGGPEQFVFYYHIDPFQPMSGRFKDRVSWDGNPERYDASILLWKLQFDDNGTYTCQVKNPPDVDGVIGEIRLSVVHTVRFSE
Description: SPR.

The target in assay [2] is T1, human Eva1 protein. In words: SPR (Biacore). On the technique in general: In SPR one partner is held on a chip, and binding of the other changes the refractive index at the surface.
For assay [3], the target named is T2, mouse Eva1 protein (mouse, UniProt O70255 27-150, limits assumed).
T2 construct: Used in SPR; also called mouse-derived Eva1 protein; mEva1
T2 sequence: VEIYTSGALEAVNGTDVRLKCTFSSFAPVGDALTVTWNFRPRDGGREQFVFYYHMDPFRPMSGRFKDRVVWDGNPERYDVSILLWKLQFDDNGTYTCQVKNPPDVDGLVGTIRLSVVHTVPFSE
In words: SPR.

Assay [4] concerns the target T1, human Eva1 protein. In words: crystal structure, 2.0 angstrom.

B1: B2E5-48 mouse antibody (antibody, mouse IgG2b, V domains shown)
VH: QVQLQQPGAELVKPGASVKLSCKASGYTFTNYWMHWVKLRPGQGFEWIGEINPTNGGTDYNEKFKRKATLTVDKSSSTAYMQLSSLTSEDSAVYYCTIYTTALDYWGQGTTLTVSS
VL: QIVLTQSPALMSASPGERVTLTCSASSSVGYMYWYQQKPGSSPKPWIYVTSNLASGVPARFSGSGSGTSYSLTISSMEAEDAATYYCQQWSSNPPTFGAGTKLELK
notes: Mouse monoclonal from a hybridoma; also called B2E5-48 antibody
On to B1, for which the binding result in assay [1] and in assay [2] was “binds” throughout.

B2: A5D11-10 mouse antibody (antibody, V domains shown)
VH: EVQLKESGPGLVQPSQSLSITCTVSGFSLTRYGVHWVRQSPGKGLEWLGVIWSGGSTDYNAAFISRLSISKDNSKSQVFFKMNSLQANDTAIYYCARNGYDGGYAMDYWGQGTSVTVSS
VL: DIQMTQTTSSLSASLGDRVTISCRASQDISNYLNWYQQKPDGTVKLLIYYTSRLHSGVPSRFSGSGSRIDYSLTISNLEQEDFATYFCQQSDTLPPWTFGGGTKLEIK
notes: Mouse monoclonal from a hybridoma; also called A5D11-10 antibody
For B2, the binding entry in assay [3], in assay [1] and in assay [2] was “binds” throughout.

B3: Fab of the A5D11-10 antibody (Fab, V domains shown)
VH: B2 VH
VL: B2 VL
For B3, the binding result in assay [4] is on record as “binds”.

B4: C3 mouse antibody (antibody, mouse IgG1, V domains shown)
VH: EVKLVESGGGLVQPGGSLKLSCAASGFTFSSYTMSWVRQTPEKRLEWVAYITTGAGRTYYPDTVKGRFTISRDNAKNTLYLQMSSLKSEDTAMYYCARHRGDYWGQGTSVTVSS
VL: SIVMTQTPKFLLVSAGDRVTITCKASQSVSNDVAWYQQKPGQSPKLLIYYASNRFTGVPDRFTGSGYGTDFTFTISTVQAEDLAVYFCQQDYSSPWTFGGGTKLEIK
notes: Mouse monoclonal from a hybridoma; also called C3 antibody
With B4, the binding result in assay [3], in assay [1] and in assay [2] was “binds” in each case.
